Test results: patent US20250376498A1, “FUSION PROTEINS COMPRISING AN IMPROVED GLP-1 RECEPTOR AGONIST AND USES THEREOF” (Guangzhou Innogen Pharmaceutical Group Co., Ltd., priority 2022, published 2025)

Experiment: K34 (+16 Da) hydroxylation level by Lys-C LC-MS/MS peptide mapping, UV280 and EIC
Type: physicochemical

**Q.** With “Dulaglutide: DPP-IV protected GLP-1 analog fused with an IgG4/Fc fragment” as the substance, how does the “EIC Ratio (%) of +16Da modified peptide 21-28 EFIAWLVK (K34 modification level)” value (EIC method) read?
**A.** Its value is 4.4%.

**Q.** And the “UV280 Ratio (%) of +16Da modified peptide 21-28 EFIAWLVK (K34 modification level)” value (UV280 method)?
**A.** The value was 8.2%.
